Measurements published in the supplement of paper PMC11006884.
Only a part is listed here, and it is no random draw.

Chains of the proteins cited; added tags and fusions are not shown. Lines headed by an entry give the natural chain unless they say otherwise; changes in a name come on top.
UniProt Q9ULT8: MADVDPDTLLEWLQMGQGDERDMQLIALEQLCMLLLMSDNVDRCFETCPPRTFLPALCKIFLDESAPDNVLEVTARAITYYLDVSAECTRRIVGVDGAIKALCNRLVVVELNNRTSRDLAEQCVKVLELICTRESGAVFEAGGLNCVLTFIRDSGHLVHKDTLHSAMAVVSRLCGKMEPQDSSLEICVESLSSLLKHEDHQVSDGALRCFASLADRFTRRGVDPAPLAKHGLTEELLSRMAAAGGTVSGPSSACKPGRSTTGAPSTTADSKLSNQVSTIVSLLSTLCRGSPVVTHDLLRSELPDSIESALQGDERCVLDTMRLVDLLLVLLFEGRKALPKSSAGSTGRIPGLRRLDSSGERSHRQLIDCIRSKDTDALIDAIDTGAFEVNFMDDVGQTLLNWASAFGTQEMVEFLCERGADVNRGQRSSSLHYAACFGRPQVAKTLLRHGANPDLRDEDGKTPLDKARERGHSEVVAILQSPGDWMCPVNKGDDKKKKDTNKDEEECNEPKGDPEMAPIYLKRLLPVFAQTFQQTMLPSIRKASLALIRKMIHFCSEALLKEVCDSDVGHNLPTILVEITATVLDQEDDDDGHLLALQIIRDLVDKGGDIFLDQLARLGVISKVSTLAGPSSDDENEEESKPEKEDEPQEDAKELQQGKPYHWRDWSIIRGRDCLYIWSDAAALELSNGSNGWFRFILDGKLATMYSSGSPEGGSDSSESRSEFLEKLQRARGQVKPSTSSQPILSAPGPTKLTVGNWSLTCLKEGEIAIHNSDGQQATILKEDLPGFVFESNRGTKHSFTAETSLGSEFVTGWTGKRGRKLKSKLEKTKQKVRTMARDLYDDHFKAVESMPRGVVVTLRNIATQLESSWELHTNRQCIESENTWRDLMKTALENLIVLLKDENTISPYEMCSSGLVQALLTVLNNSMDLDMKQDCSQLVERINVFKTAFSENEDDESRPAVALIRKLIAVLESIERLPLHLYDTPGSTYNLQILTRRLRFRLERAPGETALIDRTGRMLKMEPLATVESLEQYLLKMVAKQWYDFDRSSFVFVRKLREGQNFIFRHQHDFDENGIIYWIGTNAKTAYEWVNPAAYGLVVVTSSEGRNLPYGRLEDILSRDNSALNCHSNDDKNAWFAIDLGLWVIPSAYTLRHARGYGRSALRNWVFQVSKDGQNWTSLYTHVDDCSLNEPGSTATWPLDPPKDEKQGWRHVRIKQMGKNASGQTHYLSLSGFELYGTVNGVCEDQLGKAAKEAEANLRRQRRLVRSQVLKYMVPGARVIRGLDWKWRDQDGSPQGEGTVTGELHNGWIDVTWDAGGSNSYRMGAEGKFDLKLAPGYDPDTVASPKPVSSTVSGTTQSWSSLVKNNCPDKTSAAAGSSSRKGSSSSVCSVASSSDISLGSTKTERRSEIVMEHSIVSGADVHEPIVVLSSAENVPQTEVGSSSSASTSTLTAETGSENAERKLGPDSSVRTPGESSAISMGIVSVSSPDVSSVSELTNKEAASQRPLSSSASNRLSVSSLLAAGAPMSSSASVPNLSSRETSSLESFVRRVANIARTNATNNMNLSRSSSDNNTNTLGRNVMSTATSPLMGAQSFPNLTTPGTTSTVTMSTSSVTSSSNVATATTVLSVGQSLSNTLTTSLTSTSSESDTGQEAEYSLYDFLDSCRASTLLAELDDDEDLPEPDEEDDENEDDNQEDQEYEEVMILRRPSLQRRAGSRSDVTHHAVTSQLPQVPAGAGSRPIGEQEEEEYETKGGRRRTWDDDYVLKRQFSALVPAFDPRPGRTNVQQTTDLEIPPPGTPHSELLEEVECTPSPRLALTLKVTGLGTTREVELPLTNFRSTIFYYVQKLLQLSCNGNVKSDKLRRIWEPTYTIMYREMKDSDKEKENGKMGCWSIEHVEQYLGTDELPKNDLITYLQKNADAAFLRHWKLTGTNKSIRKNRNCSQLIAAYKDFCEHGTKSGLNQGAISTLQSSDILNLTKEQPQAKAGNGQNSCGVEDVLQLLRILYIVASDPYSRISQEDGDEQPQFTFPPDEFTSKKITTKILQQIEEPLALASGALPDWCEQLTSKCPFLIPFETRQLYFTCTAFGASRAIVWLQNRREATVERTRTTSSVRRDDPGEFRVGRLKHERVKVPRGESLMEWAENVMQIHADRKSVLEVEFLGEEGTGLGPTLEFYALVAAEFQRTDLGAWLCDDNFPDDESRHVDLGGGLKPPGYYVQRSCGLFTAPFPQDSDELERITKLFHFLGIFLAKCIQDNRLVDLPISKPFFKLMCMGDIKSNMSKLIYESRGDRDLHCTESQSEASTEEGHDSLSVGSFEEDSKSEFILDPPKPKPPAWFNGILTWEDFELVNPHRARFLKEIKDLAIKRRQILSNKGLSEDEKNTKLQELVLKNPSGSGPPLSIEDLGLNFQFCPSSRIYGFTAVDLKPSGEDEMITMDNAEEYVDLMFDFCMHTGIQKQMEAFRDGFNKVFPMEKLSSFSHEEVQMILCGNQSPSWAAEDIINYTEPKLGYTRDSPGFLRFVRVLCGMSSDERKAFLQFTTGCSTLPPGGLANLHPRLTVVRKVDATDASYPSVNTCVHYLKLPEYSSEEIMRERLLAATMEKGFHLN
UniProt Q9UHD1: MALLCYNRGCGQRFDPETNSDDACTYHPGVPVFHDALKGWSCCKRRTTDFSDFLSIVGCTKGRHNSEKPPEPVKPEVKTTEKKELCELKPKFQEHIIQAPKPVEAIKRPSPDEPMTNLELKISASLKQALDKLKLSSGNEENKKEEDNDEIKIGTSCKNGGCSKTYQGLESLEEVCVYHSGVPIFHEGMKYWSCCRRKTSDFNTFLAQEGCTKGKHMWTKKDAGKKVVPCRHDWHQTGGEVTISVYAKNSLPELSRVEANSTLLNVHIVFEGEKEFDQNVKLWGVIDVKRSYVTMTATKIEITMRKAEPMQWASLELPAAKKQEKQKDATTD
UniProt Q9UPN9: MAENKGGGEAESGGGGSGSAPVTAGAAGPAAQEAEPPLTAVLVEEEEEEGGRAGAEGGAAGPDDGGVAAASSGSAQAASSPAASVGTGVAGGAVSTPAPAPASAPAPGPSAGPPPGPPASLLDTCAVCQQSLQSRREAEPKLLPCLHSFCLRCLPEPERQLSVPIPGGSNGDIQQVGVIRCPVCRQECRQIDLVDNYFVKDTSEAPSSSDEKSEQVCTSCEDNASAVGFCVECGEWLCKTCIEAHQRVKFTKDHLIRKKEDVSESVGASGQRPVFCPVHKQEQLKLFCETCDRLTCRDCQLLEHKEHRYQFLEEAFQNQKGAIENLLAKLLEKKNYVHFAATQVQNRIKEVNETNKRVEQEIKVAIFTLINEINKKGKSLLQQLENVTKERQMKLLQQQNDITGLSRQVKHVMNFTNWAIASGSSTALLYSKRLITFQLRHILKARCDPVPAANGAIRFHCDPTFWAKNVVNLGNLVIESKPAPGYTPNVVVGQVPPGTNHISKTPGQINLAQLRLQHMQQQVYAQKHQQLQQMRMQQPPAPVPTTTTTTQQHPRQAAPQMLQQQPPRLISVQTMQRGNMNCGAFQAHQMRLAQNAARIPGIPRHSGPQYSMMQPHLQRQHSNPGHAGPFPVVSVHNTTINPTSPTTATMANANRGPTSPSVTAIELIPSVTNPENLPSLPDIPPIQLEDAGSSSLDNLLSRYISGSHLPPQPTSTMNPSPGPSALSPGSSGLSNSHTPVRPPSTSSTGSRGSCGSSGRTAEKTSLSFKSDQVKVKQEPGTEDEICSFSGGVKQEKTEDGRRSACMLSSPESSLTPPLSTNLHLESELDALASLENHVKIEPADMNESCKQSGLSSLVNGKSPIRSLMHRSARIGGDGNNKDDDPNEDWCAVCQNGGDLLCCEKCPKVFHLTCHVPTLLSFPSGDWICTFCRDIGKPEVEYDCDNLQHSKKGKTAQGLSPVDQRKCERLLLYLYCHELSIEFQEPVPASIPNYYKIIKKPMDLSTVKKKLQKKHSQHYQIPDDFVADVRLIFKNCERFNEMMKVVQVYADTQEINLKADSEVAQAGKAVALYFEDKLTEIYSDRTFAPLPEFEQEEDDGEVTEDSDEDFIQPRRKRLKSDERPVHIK
UniProt Q9UNE7: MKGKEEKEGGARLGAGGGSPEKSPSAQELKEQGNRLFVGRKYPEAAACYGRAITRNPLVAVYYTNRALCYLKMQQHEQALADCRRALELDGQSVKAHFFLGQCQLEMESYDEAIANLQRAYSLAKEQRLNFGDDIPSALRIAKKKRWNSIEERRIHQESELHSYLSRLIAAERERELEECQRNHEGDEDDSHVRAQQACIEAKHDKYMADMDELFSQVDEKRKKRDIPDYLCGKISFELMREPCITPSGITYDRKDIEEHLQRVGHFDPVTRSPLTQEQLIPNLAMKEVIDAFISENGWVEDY
UniProt Q9Y383: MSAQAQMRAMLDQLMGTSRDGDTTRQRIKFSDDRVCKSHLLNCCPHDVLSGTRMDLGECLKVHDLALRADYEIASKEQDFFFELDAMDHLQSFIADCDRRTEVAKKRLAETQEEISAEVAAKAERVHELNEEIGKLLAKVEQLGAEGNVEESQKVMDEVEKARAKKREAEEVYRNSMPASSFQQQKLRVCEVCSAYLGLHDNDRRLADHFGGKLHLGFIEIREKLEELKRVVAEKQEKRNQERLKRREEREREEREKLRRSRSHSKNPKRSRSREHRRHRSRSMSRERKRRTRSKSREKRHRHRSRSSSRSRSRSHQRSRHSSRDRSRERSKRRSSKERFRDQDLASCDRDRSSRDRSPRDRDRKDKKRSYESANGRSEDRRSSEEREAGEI
UniProt Q9UN37: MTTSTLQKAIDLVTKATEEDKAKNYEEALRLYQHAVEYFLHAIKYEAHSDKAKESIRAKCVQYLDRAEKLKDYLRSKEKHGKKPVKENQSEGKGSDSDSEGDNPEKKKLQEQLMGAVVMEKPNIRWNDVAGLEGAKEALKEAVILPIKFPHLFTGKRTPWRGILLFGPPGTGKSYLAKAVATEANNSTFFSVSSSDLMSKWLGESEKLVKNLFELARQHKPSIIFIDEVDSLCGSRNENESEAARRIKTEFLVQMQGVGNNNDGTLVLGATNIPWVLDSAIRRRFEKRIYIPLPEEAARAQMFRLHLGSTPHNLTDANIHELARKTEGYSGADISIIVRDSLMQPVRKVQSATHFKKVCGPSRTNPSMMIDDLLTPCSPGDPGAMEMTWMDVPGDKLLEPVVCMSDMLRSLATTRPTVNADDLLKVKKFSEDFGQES
UniProt Q9Y2K2: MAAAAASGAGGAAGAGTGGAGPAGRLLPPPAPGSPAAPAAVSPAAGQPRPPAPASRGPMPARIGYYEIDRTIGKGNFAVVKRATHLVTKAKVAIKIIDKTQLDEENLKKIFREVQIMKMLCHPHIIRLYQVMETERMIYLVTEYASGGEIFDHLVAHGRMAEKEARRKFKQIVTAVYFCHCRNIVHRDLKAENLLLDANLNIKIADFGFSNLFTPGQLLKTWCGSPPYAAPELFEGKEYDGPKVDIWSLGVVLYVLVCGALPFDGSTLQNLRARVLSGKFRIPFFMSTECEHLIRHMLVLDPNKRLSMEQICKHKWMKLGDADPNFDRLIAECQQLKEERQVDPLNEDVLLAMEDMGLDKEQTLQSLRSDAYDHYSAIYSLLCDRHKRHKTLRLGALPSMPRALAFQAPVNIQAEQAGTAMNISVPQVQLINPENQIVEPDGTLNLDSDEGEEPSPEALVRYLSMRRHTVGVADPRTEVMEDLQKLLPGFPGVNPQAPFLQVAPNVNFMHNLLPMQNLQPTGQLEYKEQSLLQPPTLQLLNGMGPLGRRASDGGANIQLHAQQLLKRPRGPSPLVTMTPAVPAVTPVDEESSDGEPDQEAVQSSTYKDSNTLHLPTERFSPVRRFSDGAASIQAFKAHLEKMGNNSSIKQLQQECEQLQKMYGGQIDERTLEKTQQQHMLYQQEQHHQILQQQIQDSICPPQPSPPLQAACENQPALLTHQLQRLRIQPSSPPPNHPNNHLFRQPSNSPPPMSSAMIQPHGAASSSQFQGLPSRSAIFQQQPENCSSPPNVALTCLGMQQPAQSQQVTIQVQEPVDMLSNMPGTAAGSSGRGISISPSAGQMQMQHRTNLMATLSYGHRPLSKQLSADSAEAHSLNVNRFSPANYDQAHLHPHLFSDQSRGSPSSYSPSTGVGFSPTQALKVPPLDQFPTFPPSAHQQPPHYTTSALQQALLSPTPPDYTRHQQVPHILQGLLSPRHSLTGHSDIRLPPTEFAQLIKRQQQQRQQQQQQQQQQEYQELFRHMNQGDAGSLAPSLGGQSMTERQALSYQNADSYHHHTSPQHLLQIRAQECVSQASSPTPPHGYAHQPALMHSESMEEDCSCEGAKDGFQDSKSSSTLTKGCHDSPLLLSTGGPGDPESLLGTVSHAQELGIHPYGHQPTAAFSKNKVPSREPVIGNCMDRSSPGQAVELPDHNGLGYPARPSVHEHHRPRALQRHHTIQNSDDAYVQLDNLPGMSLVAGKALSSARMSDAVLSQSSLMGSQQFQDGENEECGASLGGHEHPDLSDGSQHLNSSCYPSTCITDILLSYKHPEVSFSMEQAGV

compound: COC(=O)C#Cc1ccccc1 [methyl 3-phenylpropiolate]; test: log2 ratio of iodoacetamide-alkyne labeling of the cysteine site, DMSO over compound (competition); higher = stronger covalent engagement of the cysteine by the compound, active = 1 or more; settings: 500 µM; treatment time 1 h; system: HEK293T cell lysate
Method in brief: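 Electrophile (500 µM) or vehicle was added to HEK293T lysate (2 mg/mL) for 1 h at ambient temperature before iodoacetamide alkyne labelling (1 h) and click coupling to sCIP-TMT reagents. After pooling, overnight trypsin digestion at 37 °C, streptavidin enrichment and acid elution, peptides were measured by Orbitrap Eclipse LC-MS/MS with FAIMS and quantified in FragPipe. Each cysteine's log2 competition ratio compares mean control-channel with mean compound-channel reporter intensity, control over compound. Data came from duplicate channels across three replicates, excluding cysteines quantified in only one replicate.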

log2 ratio of iodoacetamide-alkyne labeling, inactive:
HERC5 C468 (UniProt Q9UII4) 0.344, VPS51 C269 (UniProt Q9UID3) 0.563, HECTD1 C436 (UniProt Q9ULT8) -0.0217, CHORDC1 C86 (UniProt Q9UHD1) 0.526, UniProt Q9UHJ3_C142 0.274, TRIM33 C150 (UniProt Q9UPN9) 0.21, PACSIN3 C421 (UniProt Q9UKS6) 0.00259, UniProt Q9Y3U8_C48 0.297, USP24 C1628 (UniProt Q9UPU5) 0.657, RABGAP1 C1026 (UniProt Q9Y3P9) -0.252, UniProt Q9Y2D5_C296 0.394, TPX2 C145 (UniProt Q9ULW0) 0.384, VPS28 C96 (UniProt Q9UK41) 0.12, WNK2 C2062 (UniProt Q9Y3S1) 0.515, COPS3 C383 (UniProt Q9UNS2) 0.264, TPX2 C301 (UniProt Q9ULW0) 0.858, STUB1 C199 (UniProt Q9UNE7) 0.493, HECTD1 C2579 (UniProt Q9ULT8) 0.335, PRPF19 C230 (UniProt Q9UMS4) 0.231, STUB1 C232 (UniProt Q9UNE7) 0.0873, TRIM33 C153 (UniProt Q9UPN9) 0.274, LSM7 C76 (UniProt Q9UK45) 0.0557, HECTD1 C1368 (UniProt Q9ULT8) 0.751, LUC7L2 C36 (UniProt Q9Y383) 0.0766, SRRM2 C1480 (UniProt Q9UQ35) 0.319, HECTD1 C254 (UniProt Q9ULT8) 0.374, DDX20 C577 (UniProt Q9UHI6) 0.339, STUB1 C48 (UniProt Q9UNE7) 0.0575, INO80 C1049 (UniProt Q9ULG1) 0.492, DLGAP4 C726 (UniProt Q9Y2H0) 0.74, NOSIP C250 (UniProt Q9Y314) -0.108, NOP58 C205 (UniProt Q9Y2X3) 0.555, HERC5 C994 (UniProt Q9UII4) 0.115, DDX20 C98 (UniProt Q9UHI6) 0.353, VPS4A C403 (UniProt Q9UN37) 0.205, MBD1 C57 (UniProt Q9UIS9) 0.0108, UniProt Q9Y2K2_C333 0.197
